Test results reported in PubChem BioAssay AID2685 (National Center for Advancing Translational Sciences (NCATS), 2010).
Several values for one entry are separate records, joined by “and”; a condition that tells them apart may be missing. Identical values can stand only once. The list shows a part of the results. Shown are side measurements of this screen, not its main read-out; they come without a call. Compounds called inactive in the main read-out are mostly missing here. Potencies come from curve fits of mixed quality, noted in brackets.

Assay: qHTS Assay for Lipid Storage Modulators in Drosophila S3 Cells;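 for cell number change: cells counted by Cell Tracker Red CMTPX staining in the red channel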
Conditions: BODIPY lipid droplet fluorescence, 18-24 h; for cell number change: measured here: cell count max response, cells fed with added oleic acid
Outline: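 Laser-scanning cytometry quantifies lipid droplet accumulation (500–530 nm total intensity; droplet/cell object ratio) in oleic acid-fed (400 uM added) Drosophila S3 cells treated with a concentration series. 20 uM Triacsin C defined 100% inhibition.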

[1] = measured here: lipid fluorescence (Fed channel) AC50, cells fed with added oleic acid
[2] = measured here: cell number channel AC50, cells fed with added oleic acid

| SMILES | cell number change | AC50 [1] | AC50 [2] |
| --- | --- | --- | --- |
| CC12CCC(=O)N1C(C(=O)O)Cc1c2[nH]c2ccccc12 (stereo not drawn) | -1.99% | 9.2 µM [falling, partial curve, poor fit] | – |
| CCn1ccc2cc(OC)ccc2c1=S | – | 0.00461 µM [falling, full curve, poor fit] | – |
| Cc1ccc(S(=O)(=O)N2CCC(C(=O)NCCc3ccccc3)CC2)cc1 | – | 0.651 µM [falling, single point] | – |
| COC(=O)c1ccc(-c2sc3nc(N4CCOCC4)c4c(c3c2N)CC(C)(C)OC4)o1 | -7.58% | 0.00461 µM [rising, full curve] | – |
| Cc1cc(OCc2ccc(C(=O)NN=C3CCCC3)cc2)ccc1Cl | 2.69% | 0.58 µM [rising, single point] | – |
| C=CCN(C(=O)CCC(=O)Nc1cc(C)on1)C(C(=O)NC1CCCC1)c1ccc(C)cc1 (stereo not drawn) | 2.25% | – | – |
| Cc1cnc(CN(C)C(=O)c2ccc3oc(Cc4ccccc4)nc3c2)[nH]1 | 1.73% | 1.84 µM [rising, partial curve, poor fit] | – |
| COc1ccc(NC(=O)CC(C)CC(=O)NCc2ccc(F)cc2)c(OC)c1 (stereo not drawn) | -18.9% | – | – |
| CCOC(=O)N1CCN(C(=O)COc2cc(=O)n(C)c3ccccc23)CC1 | 160% | – | 20.6 µM [rising, single point] |
| CCOc1cc(CN2CCN(C(=O)c3cccc4ccccc34)CC2)ccc1OC | -15.2% | 29.1 µM [falling, single point] | – |
| CC(CCc1ccccc1)NC(=O)CN1C(=O)NC2(CCCCC2C)C1=O (stereo not drawn) | -12.3% | – | – |
| COc1ccc(-n2c(SCC(=O)N3CCCCC3)nnc2-c2cccnc2)cc1 | 26.7% | 0.13 µM [rising, full curve, poor fit] | – |
| CCCN1C(=O)/C(=C/c2c(NCCCOCC)nc3c(C)cccn3c2=O)SC1=S | 0.909% | 4.61 µM [rising, partial curve, poor fit] | – |
| NC(=O)C1CCN(C(=O)NC2CC(=O)N(c3ccc4c(c3)OCCO4)C2)CC1 (stereo not drawn) | -18.5% | – | – |
| COCCn1ccc2c(OCC(=O)NCc3ccc(C)cc3)cccc2c1=O | – | 6.51 µM [rising, single point] | – |
| Cc1cccc(NC(=O)NNC(=O)c2sccc2-n2cccc2)c1 | -12.2% | 3.66 µM [falling, single point] | – |
| CC(C)CCn1nc(C(=O)OC(C)C(=O)NC(N)=O)c2ccccc2c1=O (stereo not drawn) | 13.4% | – | 0.00461 µM [rising, full curve, poor fit] |
| Cc1ccc(NC(=O)c2snc3ccc(Cl)cc23)cc1C | -0.905% | 29.1 µM [falling, single point] | – |
| CCOC(=O)C1(CCOC)CCN(CC(C)Cc2ccc3c(c2)OCO3)CC1 (stereo not drawn) | 16.2% | 29.1 µM [rising, single point] | – |
| Cn1c(=O)c(=O)n(C)c2cc(N3CCCC3)c(NS(=O)(=O)c3ccc(F)cc3)cc21 | -8.56% | 0.00461 µM [falling, full curve, poor fit] | – |
| CCOC(=O)N1CCN(c2ccccc2OC)CC1 | 27.1% | 9.2 µM [rising, partial curve, poor fit] | – |

| SMILES | cell number change | AC50 [1] | AC50 [2] |
| --- | --- | --- | --- |
| CCOC(=O)c1cnc2c(Cl)c(Cl)ccc2c1NCCN1CCOCC1 | 24.3% | – | – |
| CCc1ccc(S(=O)(=O)N2CCCC(N3CCN(c4ccc(OC)cc4)CC3)C2)cc1 (stereo not drawn) | -13.6% | – | – |
| COc1cc(NS(=O)(=O)c2c(C)oc3c(F)c(F)c(F)c(F)c23)cc(OC)c1OC | 1.83% | 1.3 µM [falling, partial curve] | – |
| CCOc1ccc(-c2noc(CCC(=O)NC3CCCCC3)n2)cc1OC | -2.61% | – | – |
| COc1cc2c(cc1OC)C(c1ccc(Cl)cc1)CC(=O)N2 (stereo not drawn) | – | 2.06 µM [falling, partial curve, poor fit] | – |
| N#CCC(=O)Nc1ccc(C(=O)OCC(=O)N(Cc2ccccc2)C2CCS(=O)(=O)C2)cc1 (stereo not drawn) | 14.4% | 5.17 µM [rising, single point] | – |
| CCCCCc1c(O)nc(SCCN(CC)CC)[nH]c1=O | -42.9% | 29.1 µM [falling, single point] | – |
| O=C(N/N=C1\CC2CC=CC12)c1ccc(COc2ccccc2)cc1 (stereo not drawn) | 39% | – | 32.6 µM [rising, single point] |
| COc1ccc(C2C=C(C)Nc3nc4ccccc4n32)cc1 (stereo not drawn) | -12.1% | – | – |
| Cc1cccc(NS(=O)(=O)c2ccc(C(=O)NCC(c3ccccc3)N(C)C)cc2)c1C (stereo not drawn) | -13.3% | – | 3.66 µM [rising, single point] |
| Cc1cc(C(=O)CN2C(=O)C(=O)N(C3CCCC3)C2=O)c(C)n1CCc1ccccc1 | – | – | 0.206 µM [rising, full curve, poor fit] |
| O=C1C=C(c2cccc(Cl)c2O)C[C@@H](c2ccc(F)cc2)C1 | -23.1% | 0.058 µM [falling, full curve, poor fit] | 1.3 µM [falling, partial curve] |
| CC1=C(C(=O)OC(C)C)C(c2c[nH]c3ccccc23)n2ncnc2N1 (stereo not drawn) | -12.5% | 23.1 µM [falling, partial curve] | – |
| O=C(CCS(=O)(=O)c1ccccc1)N1CCN(c2ccccc2F)CC1 | 19.9% | 29.1 µM [rising, single point] | – |
| O=C(NC1CCC(C(=O)O)CC1)OCc1ccccc1 (stereo not drawn) | -32.1% and -10.7% | 29.1 µM [falling, single point] | 0.731 µM [falling, full curve] |
| NC(=O)C1CCCN(C(=O)Nc2cccc3ccccc23)C1 (stereo not drawn) | 14.3% | 2.59 µM [rising, full curve, poor fit] | – |
| Cc1ccc(OCC(=O)Nc2ccc3c(c2)nc2n3CCOC2)cc1 | 40.6% | 0.58 µM [falling, single point] | 29.1 µM [rising, single point] |
| CC1=C(C(=O)NC2CC(C)(C)Cc3c2cnn3-c2ccc(C)cc2)OCCO1 (stereo not drawn) | -6.65% | – | – |
| Cc1ccc(-n2c(SCc3nc4ccccc4[nH]3)nnc2-c2ccncc2)cc1 | -4.98% | 6.51 µM [rising, partial curve] | – |
| Cc1oc2c(c1C(=O)N1CCC(C)CC1)C(=O)c1ccccc1C2=O | – | 0.0651 µM [falling, full curve, poor fit] | – |
| NC(=S)N=Nc1c(O)n(Cc2ccc(Br)cc2)c2ccccc12 | -28.1% | 29.1 µM [falling, single point] | – |

| SMILES | cell number change | AC50 [1] | AC50 [2] |
| --- | --- | --- | --- |
| CCSc1nc(=S)n(-c2ccccc2)c(C)c1C(C)=O | 34.7% | – | 29.1 µM [rising, single point] |
| CCN(CC)S(=O)(=O)c1cc(NC(=O)CCCOc2ccc(C(C)=O)cc2)ccc1C | 1.58% | – | – |
| O=C(CNC(=O)c1ccccc1)NCc1nc2ccccc2[nH]1 | 26.7% | 16.4 µM [rising, partial curve] | – |
| CC(C)NS(=O)(=O)c1ccc(NCCCn2ccnc2)c([N+](=O)[O-])c1 | 3.85% | – | – |
| O=C(NCCC1CCCCN1S(=O)(=O)c1ccc(Cl)cc1)C(=O)NCc1ccncc1 (stereo not drawn) | -37.9% | – | 11.6 µM [falling, partial curve] |
| CCOc1ccc(-c2[nH]ncc2-c2ccc(OC)c(OC)c2)c(O)c1 | -47.6% | 29.1 µM [falling, single point] | 23.1 µM [falling, partial curve, poor fit] |
| CC1(C)Cc2ccccc2-c2nc3ccccc3c(=O)n21 | -34.8% | 29.1 µM [falling, single point] | 16.4 µM [falling, partial curve, poor fit] |
| Cc1cc(C)c2cc(C#N)c(N3CCCC3)nc2c1 | -3% | – | – |
| Cc1ccccc1Cc1n[nH]c(=S)n1N | -0.326% | 25.9 µM [rising, single point] | – |
| Cc1ccc2nc(-c3cccc(-c4cccc(Cl)c4)c3)c(NCc3ccccc3)n2c1 | -35.3% | – | 14.6 µM [falling, partial curve, poor fit] |
| O=C(COC(=O)/C=C/c1ccccc1)NCc1cccs1 | 25.6% | 0.651 µM [rising, single point] | – |
| Cc1ccc(N(CCC(=O)NC(C)(C)C)S(=O)(=O)c2ccc(C)cc2)cc1 | -25.8% | – | 0.082 µM [falling, full curve, poor fit] |
| CCN(CC(=O)NCc1ccc2c(c1)OCO2)S(=O)(=O)c1ccc(F)cc1 | -8.82% | – | – |
| CCOC(=O)CC1=C(C(=O)OCC)C(c2cccnc2)C(C#N)=C(N)O1 (stereo not drawn) | – | 0.366 µM [rising, full curve] | 0.326 µM [rising, full curve] |
| C[C@@]12CCC=C[C@H]1[C@H](c1ccc3ccccc3c1Br)N(Cc1ccccc1)C2=O | 6.51% | 10.3 µM [rising, single point] | – |
| Cc1cc2c(cc1C)CSC(c1ccccc1O)SC2 | -82.2% | 14.6 µM [falling, partial curve] | 14.6 µM [falling, partial curve] |
| COc1cccc(CCNC(=O)CCCC(=O)c2ccccc2)c1 | 3.97% | 0.651 µM [falling, single point] | – |
| Cc1ccc(C(=O)Nc2ccc(CN3CCS(=O)(=O)CC3)cc2)cc1C | -47% | 13 µM [falling, partial curve, poor fit] | 23.1 µM [falling, partial curve, poor fit] |
| O=C(COC(=O)c1cc([N+](=O)[O-])ccc1Cl)NC1CCCC1 | -27% | 29.1 µM [falling, single point] | – |
| CCCC(=O)Oc1ccccc1C1SCc2cc(C)c(C)cc2CS1 | -32.2% | 0.092 µM [falling, full curve, poor fit] | 0.058 µM [falling, full curve, poor fit] |
